SMILES strings stand for the structures. This is one part of the list. These are further read-outs of the screen, such as a control signal, another cell line or another target. No call is given for them. Compounds called inactive in the main read-out are mostly missing here. Words in brackets tell the shape of the fitted curve; partial curves, single points and poor fits give uncertain potencies.

Among the data in PubChem BioAssay AID901 (National Center for Advancing Translational Sciences (NCATS), 2007) are AC50 values, retold here.

A short description of the assay: qHTS Assay for Identifying the Cell-Membrane Permeable IMPase Inhibitors. To be noted: CHO-M1 cells, IP1 accumulation, HTRF TR-FRET ratio; measured here: donor channel 620 nm AC50.
Consider `O=C(CCCCCn1c(=S)[nH]c2cc3c(cc2c1=O)OCO3)N1CCN(C(=O)c2ccco2)CC1`, for which the AC50 was 31.6 µM [rising, single point].

For `O=C(NCc1ccccc1)c1ccc(COCC(F)(F)F)o1`, the AC50 is 22.4 µM [falling, single point].

In the case of `O=C(CCS(=O)(=O)c1cc(Br)cc2c1N(C(=O)C1CC1)CC2)Nc1ccc(F)cc1`, the AC50 was 0.178 µM [rising, full curve, poor fit].

For the compound `Fc1ccc(CSc2nncn2NCc2ccccc2)cc1`, the concentration at half-maximal activity (AC50) is 0.398 µM [rising, partial curve].

For `COc1cc(NC(=O)CN2C(=O)NC(C)(CC(C)C)C2=O)cc(OC)c1` (configuration not stated), the AC50 is 0.0126 µM [falling, single point].

For the compound `CCOc1ccc(C2c3c(oc4ccccc4c3=O)C(=O)N2c2nnc(C)s2)cc1OC` (configuration not stated), the half-maximal activity concentration (AC50) was 4.47 µM [falling, single point].

Turning to `Cn1cccc1Cc1nnc(SCC(=O)N2CCN(c3ccccc3)CC2)n1-c1ccc(F)cc1`, the half-maximal activity concentration (AC50) is 6.31 µM [rising, partial curve, poor fit].

Turning to `CCOc1ncccc1C(=O)Nc1ccccc1C(=O)NCc1ccc2c(c1)OCO2`, the AC50 was 5.01 µM [rising, single point].

As for `Cc1cc(C)n2c(Nc3ccccc3)c(-c3ccccc3)nc2n1`, the AC50 is 6.31 µM [falling, single point].

For `CCn1c2ccccc2c2cc(N)ccc21`, the AC50 is 0.0631 µM [rising, full curve, poor fit].

In the case of `CCNc1cc2oc(=O)c(CN3CCOCC3)c(C)c2cc1C`, the AC50 was 0.02 µM [rising, full curve, poor fit].

With `O=C(OCC1CCCN2CCCCC12)c1ccc2c(c1)OCO2` (configuration not stated), the AC50 was 2 µM [falling, partial curve, poor fit].

Turning to `CCn1c(SCC(=O)Nc2cccc(F)c2)nnc1-c1cc2cc(Br)ccc2o1`, the AC50 was 25.1 µM [rising, single point].

Turning to `CN(C)c1ccc(C2OC(=O)C(C)(C)C(=O)C2(C)C)cc1` (configuration not stated), the AC50 is 3.16 µM [rising, partial curve].

`CCN(CCCNC(=O)CCNC(=O)Cn1cnc2ccccc2c1=O)c1ccccc1`: the AC50 is 3.16 µM [falling, single point].

On to `CCn1c(SCC(=O)Nc2nccs2)nnc1-c1ccncc1`, for which the AC50 was 3.16 µM [falling, single point].

Take `Cc1ccc(C)c(N(CC(=O)NC2CCCC2)C(=O)c2cc3cc4cccc(C)c4nc3s2)c1`: the AC50 is 3.98 µM [rising, single point].

Consider `CCOC(=O)N1CCN(C(=O)Cn2c(=O)sc3ccccc32)CC1`, for which the AC50 is 0.398 µM [falling, partial curve, poor fit].

For `CCCC1=Nc2cc(C(=O)NC3CCCC3)ccc2Sc2ccc(C)cc21`, the AC50 was 12.6 µM [falling, single point].

As for `CCOC(=O)c1ccc(NS(=O)(=O)c2ccc3c(c2)n(C)c(=O)n3C)cc1`, the AC50 was 0.0224 µM [falling, full curve, poor fit].

In the case of `Cc1cccc(C2N(c3nccs3)C(=O)C3CCCN32)c1` (configuration not stated), the AC50 is 6.31 µM [rising, full curve, poor fit].

Take `Cc1cc(NC(=O)CCC(=O)N(c2cccnc2)C(C(=O)NC2CCCC2)c2ccccc2F)no1` (configuration not stated): the AC50 is 0.158 µM [falling, single point].

Regarding `COc1ccc(-c2csc3nc(-c4ccccc4C)oc(=O)c23)cc1OC`, the AC50 was 5.62 µM [rising, single point].

`CCN(CC)c1cc(C)c2ccccc2n1`: the AC50 was 0.1 µM [rising, single point].

As to `O=C(Nc1cc(-c2nc3ccccc3s2)ccc1Cl)c1cc2ccccc2o1`, the concentration at half-maximal activity (AC50) is 11.2 µM [rising, partial curve].

For `CCn1c(-c2cccc(Cl)c2)n[nH]c1=S`, the half-maximal activity concentration (AC50) was 10 µM [rising, partial curve].

Regarding `c1ccc(-c2csc3nnc(SCc4ccc5c(c4)OCO5)n23)cc1`, the AC50 is 0.0631 µM [falling, full curve, poor fit].

Regarding `COc1cc2c(cc1OC)C(C)N(C(=O)C1COc3ccccc3O1)CC2` (configuration not stated), the half-maximal activity concentration (AC50) was 0.0251 µM [falling, full curve].

In the case of `CC1(C)CCCC2=C1CC1C(=O)N(Cc3cccnc3)C(=O)C1C2` (configuration not stated), the AC50 is 0.01 µM [rising, full curve, poor fit].

Take `O=C1OCCC1Sc1nc2cc(Cl)ccc2n1Cc1ccccc1` (configuration not stated): the AC50 was 0.398 µM [falling, partial curve].

Turning to `CC(C)(C)NC(=O)C(=O)NNC(=O)c1ccccc1`, the AC50 was 0.00631 µM [falling, full curve, poor fit].

Regarding `CCCn1cnc2c(=O)oc3ccccc3c21`, the AC50 is 0.126 µM [rising, single point].

Take `CN(C)CCN1C(=O)C(=O)/C(=C(/O)c2ccc(F)cc2)C1c1ccccc1` (configuration not stated): the AC50 was 0.0251 µM [rising, full curve, poor fit].

As to `CC(Nc1ccccc1)c1cc(Cl)ccc1O` (configuration not stated), the AC50 is 2.51 µM [falling, partial curve, poor fit].

As for `CCOC(=O)N1CCc2c(sc3c2C(=O)NC(c2ccc(C(=O)OC)cc2)N3)C1` (configuration not stated), the concentration at half-maximal activity (AC50) is 0.0891 µM [falling, full curve, poor fit].

Turning to `Cc1cc2oc3c(c(=O)c2cc1C)C(c1ccc(C(C)C)cc1)N(c1nc(C)c(C)s1)C3=O` (configuration not stated), the AC50 was 0.0708 µM [falling, full curve, poor fit].

In the case of `CN(C)c1ccc(NC(=O)c2cccc(N3C(=O)CCC3=O)c2)cc1`, the AC50 was 0.000398 µM [falling, full curve, poor fit].

For the compound `O=C(OC1CCOC1=O)c1cc(-c2ccc(Cl)cc2)nc2ccccc12` (configuration not stated), the AC50 is 1.26 µM [rising, single point].

Turning to `CCNc1nc(-c2ccc(Cl)cc2)cs1`, the AC50 is 1 µM [rising, partial curve, poor fit].

With `CC(C)(C)NC(=O)CSc1nc(-c2ccc(F)cc2)cc(C(F)(F)F)n1`, the AC50 is 2 µM [falling, full curve, poor fit].

`COc1cc(/C=C(\C#N)c2nc3ccccc3[nH]2)cc(Br)c1OCc1ccc(F)cc1`: the AC50 is 0.0631 µM [rising, full curve, poor fit].

As for `CO/N=C/NC(=O)c1c(OC)ccnc1Oc1cccc(C(F)(F)F)c1`, the AC50 is 10 µM [rising, partial curve, poor fit].

What is called AC50 is the concentration giving half of the maximal activity seen.
